Assay results taken from paper PMC6446209.
Results are given in words; binding and its absence hold for the method and conditions named. For some of these results: Binding seen in cells or lysates may run through a third protein. Some entries that bind do so weakly or less than the wild type. For some of these results: Tags and fused reporters may be left off the sequences shown.

Chains of the proteins cited; added tags and fusions are not shown.
UniProt Q8TD43: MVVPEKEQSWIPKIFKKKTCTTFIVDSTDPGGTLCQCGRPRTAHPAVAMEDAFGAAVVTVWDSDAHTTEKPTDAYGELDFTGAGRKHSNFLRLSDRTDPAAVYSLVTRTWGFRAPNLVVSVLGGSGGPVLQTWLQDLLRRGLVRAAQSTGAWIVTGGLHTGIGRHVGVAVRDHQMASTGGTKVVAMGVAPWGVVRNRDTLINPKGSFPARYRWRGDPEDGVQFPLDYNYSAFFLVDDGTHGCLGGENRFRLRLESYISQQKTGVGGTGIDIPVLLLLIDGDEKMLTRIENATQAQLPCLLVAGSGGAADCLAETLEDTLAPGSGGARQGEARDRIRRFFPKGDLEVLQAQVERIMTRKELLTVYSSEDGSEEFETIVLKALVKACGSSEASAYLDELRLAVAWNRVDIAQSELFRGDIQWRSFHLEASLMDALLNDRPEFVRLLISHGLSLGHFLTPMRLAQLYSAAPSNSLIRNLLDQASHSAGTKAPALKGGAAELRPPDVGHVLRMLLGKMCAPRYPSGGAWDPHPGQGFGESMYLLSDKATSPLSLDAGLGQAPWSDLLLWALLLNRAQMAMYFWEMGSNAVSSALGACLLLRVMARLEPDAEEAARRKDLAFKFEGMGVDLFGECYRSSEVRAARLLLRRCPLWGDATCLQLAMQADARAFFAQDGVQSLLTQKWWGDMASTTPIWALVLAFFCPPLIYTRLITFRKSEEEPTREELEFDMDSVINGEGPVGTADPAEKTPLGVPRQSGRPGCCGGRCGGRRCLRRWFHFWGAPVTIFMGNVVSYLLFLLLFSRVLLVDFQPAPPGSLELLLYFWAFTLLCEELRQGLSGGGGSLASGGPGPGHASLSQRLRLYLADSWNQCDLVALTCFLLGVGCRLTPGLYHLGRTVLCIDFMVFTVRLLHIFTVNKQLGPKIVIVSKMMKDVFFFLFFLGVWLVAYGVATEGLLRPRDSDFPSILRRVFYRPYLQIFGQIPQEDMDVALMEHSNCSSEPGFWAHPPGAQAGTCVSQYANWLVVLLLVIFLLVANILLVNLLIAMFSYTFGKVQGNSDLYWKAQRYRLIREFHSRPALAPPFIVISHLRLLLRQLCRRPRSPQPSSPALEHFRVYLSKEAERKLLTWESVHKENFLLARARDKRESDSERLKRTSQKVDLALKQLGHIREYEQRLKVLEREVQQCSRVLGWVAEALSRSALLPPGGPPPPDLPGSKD
UniProt Q09428: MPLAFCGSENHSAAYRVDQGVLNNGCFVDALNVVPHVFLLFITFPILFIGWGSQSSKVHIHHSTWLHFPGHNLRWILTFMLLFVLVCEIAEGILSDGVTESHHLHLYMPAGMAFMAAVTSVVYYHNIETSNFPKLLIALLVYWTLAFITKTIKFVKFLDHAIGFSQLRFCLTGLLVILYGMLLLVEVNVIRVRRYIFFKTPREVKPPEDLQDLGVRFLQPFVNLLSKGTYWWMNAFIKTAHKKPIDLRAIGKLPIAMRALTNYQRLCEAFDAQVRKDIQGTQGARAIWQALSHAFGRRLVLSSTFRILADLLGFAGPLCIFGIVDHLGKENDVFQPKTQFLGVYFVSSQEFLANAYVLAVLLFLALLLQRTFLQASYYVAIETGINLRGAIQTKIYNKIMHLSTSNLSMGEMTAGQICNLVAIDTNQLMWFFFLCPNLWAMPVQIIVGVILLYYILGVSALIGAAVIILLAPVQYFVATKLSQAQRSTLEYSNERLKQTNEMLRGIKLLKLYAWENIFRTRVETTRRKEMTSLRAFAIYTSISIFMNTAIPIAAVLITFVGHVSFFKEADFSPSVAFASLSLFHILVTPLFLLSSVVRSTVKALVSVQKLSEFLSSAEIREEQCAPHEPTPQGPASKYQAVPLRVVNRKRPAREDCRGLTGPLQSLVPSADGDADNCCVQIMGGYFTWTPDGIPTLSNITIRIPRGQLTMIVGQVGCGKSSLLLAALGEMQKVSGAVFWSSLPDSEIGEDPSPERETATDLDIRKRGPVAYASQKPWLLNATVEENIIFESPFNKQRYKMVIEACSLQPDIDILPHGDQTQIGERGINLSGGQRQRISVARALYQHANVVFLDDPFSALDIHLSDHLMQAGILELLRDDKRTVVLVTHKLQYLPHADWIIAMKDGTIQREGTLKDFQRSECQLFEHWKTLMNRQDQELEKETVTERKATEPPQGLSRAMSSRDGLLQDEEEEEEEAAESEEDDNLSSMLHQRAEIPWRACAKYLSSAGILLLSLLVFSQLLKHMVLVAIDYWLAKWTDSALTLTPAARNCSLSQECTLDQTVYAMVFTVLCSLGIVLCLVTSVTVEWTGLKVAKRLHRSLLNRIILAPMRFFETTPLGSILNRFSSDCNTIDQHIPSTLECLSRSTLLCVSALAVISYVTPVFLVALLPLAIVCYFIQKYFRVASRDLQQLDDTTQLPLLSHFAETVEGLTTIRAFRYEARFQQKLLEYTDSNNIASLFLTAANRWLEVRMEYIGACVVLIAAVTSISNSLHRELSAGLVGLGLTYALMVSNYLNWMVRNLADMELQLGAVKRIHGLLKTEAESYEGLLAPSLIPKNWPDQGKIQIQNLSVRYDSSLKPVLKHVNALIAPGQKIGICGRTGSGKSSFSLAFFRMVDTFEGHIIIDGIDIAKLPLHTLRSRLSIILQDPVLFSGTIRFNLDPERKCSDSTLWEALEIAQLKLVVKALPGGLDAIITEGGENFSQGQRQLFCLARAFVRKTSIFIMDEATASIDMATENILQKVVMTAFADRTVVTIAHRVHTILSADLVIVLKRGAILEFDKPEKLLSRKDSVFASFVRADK

Legend:
[1] = target: transient receptor potential cation channel subfamily M member 4 (TRPM4) (human (endogenous in brain tissue)) (UniProt Q8TD43); assay: FRET or BRET; antibody-based FRET (immunoFRET) on fixed cryosections of human contusion-TBI brain; two primary antibodies overnight at 4°C, CY3- and CY5-labelled secondary antibodies; laser scanning microscope
[2] = target: T1, KIR6.2 (human (endogenous in brain tissue)) (UniProt Q14654); assay: as above
T1 sequence: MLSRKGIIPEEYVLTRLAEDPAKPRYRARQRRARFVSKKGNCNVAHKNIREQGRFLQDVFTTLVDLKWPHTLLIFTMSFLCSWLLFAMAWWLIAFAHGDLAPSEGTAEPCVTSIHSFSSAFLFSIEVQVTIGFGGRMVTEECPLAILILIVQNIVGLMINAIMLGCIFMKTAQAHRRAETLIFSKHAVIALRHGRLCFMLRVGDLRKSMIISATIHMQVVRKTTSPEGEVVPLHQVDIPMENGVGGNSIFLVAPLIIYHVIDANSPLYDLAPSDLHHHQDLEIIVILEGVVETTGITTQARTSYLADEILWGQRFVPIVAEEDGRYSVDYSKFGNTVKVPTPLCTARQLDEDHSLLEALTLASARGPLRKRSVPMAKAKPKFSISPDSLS

[3] = target: myc-KIR6.2 (mouse) (UniProt Q61743); assay: immunoblot of SDS gel bands (monomer and multimers); whole-cell lysate or anti-myc immunoprecipitate of transfected COS-7 cells, immunoblotted with anti-myc antibody
[4] = target: myc-KIR6.1 (mouse) (UniProt P97794); assay: as above

sulfonylurea receptor 1 (SUR1) (from UniProt Q09428 1-1581)
binding [1]: binds
binding [2]: binds

B1: myc-KIR6.2 (protein, UniProt Q61743 1-390)
chain: MLSRKGIIPEEYVLTRLAEDPAEPRYRTRERRARFVSKKGNCNVAHKNIREQGRFLQDVFTTLVDLKWPHTLLIFTMSFLCSWLLFAMVWWLIAFAHGDLAPGEGTNVPCVTSIHSFSSAFLFSIEVQVTIGFGGRMVTEECPLAILILIVQNIVGLMINAIMLGCIFMKTAQAHRRAETLIFSKHAVITLRHGRLCFMLRVGDLRKSMIISATIHMQVVRKTTSPEGEVVPLHQVDIPMENGVGGNGIFLVAPLIIYHVIDSNSPLYDLAPSDLHHHQDLEIIVILEGVVETTGITTQARTSYLADEILWGQRFVPIVAEEDGRYSVDYSKFGNTIKVPTPLCTARQLDEDRSLLDALTLASSRGPLRKRSVAVAKAKPKFSISPDSLS
binding [3]: binds

B2: myc-KIR6.1 (protein, UniProt P97794 1-424)
chain: MLARKSIIPEEYVLARIAAENLRKPRIRDRLPKARFIAKSGACNLAHKNIREQGRFLQDIFTTLVDLKWRHTLVIFTMSFLCSWLLFAIMWWLVAFAHGDIYAYMEKGTMEKSGLESAVCVTNVRSFTSAFLFSIEVQVTIGFGGRMMTEECPLAITVLILQNIVGLIINAVMLGCIFMKTAQAHRRAETLIFSRHAVIAVRNGKLCFMFRVGDLRKSMIISASVRIQVVKKTTTPEGEVVPIHQQDIPVDNPIESNNIFLVAPLIICHVIDKRSPLYDISATDLANQDLEVIVILEGVVETTGITTQARTSYIAEEIQWGHRFVSIVTEEEGVYSVDYSKFGNTVRVAAPRCSARELDEKPSILIQTLQKSELSHQNSLRKRNSMRRNNSMRRNNSIRRNNSSLMVPKVQFMTPEGNQCPSES
binding [4]: binds
